# Values quoted from earlier work in patent publication US20250177299A1, “MOLECULAR COMPLEXING METHOD, FORMULATION AND MANUFACTURING FOR ENHANCED NUTRIENT DELIVERY” (Ingredient Fusion, LLC, priority 2021, published 2025).
# Conditions: cited from earlier work
Structure (SMILES),"solubility (aglycone (CAS 117-39-5), at 70° F)",solubility in water (at 140° C)
O=c1c(O)c(-c2ccc(O)c(O)c2)oc2cc(O)cc(O)c12 [Quercetin Aglycone],less than 1 mg/mL,–
"O=c1c(O)c(-c2ccc(O)c(O)c2)oc2cc(O)cc(O)c12 [flavonoid, Quercetin]",–,665 µg/mL
